For at least one compound, name, drawing or mass did not settle the structure.
Test system: HO-1
Assay: Protandim®-induced HO-1 protein in presence of signaling pathway inhibitors, SK-N-MC cells
Type: cell-based, human
Conditions: 250 nM Akt inhibitor IV, 30 μM LY294002, 10 μM U0126, 20 μM SP600125, 30 min, then 20 μg/ml Protandim® 24 h
Procedure: To identify the signaling pathway(s) involved in HO-1 promoter induction by Protandim®, different pharmacological inhibitors that specifically block each of the following pathways were used: 5-(2-benzothiazolyl)-3-ethyl-2-[2-(methylphenylamino) ethenyl]-1-phenyl-1H-benzimidazolium iodide (Akt inhibitor IV) for Akt, LY294002 for PI3-kinase, SP600125 for JNK, U0126 for MEK/ERK, SB203580 for p38MAPK, and rottlerin for PKCδ. SK-N-MC cells were preincubated in the presence of 250 nM Akt inhibitor IV, 30 μM LY294002, 1 μM rottlerin, 10 μM U0126, 20 μM SB203580, or 20 μM SP600125 for 30 min followed by exposure to 20 μg/ml Protandim® for 24 h. Cell lysates were electrophoresed and immunoblotted for HO-1. The blots were then reprobed with the antibody for β-actin. […] The intensities of the bands were quantified by densitometry using Fluor-S MultiImager and Quantity One software from Bio-Rad. HO-1 levels were corrected for β-actin expression.

O=c1cc(N2CCOCC2)oc2c(-c3ccccc3)cccc12 [LY294002]
effect of inhibitor on Protandim®-induced increase in HO-1 protein levels: significant (p<0.001) decrease

Source: patent US9265808B2, “Compositions for alleviating inflammation and oxidative stress in a mammal” (priority 2004, dated 2016)
